Measured values taken from PMC5811557.
No constants are given. Whether binding was seen depends on the method and setting. In cells and extracts the contact can be indirect. Some binding calls cover weakened binding; strength is not graded here. Tags and fused reporters may be left off the sequences shown.

Legend:
[1] = target: T1, myc-EYA3 D311N (human) (UniProt Q99504); assay: co-IP; 293T cells transfected with myc-EYA3 D311N, VSV-G-WDR1 and Btk kinase instead of Src; myc-tagged protein immunoprecipitated, anti-VSV-G blot
T1 sequence: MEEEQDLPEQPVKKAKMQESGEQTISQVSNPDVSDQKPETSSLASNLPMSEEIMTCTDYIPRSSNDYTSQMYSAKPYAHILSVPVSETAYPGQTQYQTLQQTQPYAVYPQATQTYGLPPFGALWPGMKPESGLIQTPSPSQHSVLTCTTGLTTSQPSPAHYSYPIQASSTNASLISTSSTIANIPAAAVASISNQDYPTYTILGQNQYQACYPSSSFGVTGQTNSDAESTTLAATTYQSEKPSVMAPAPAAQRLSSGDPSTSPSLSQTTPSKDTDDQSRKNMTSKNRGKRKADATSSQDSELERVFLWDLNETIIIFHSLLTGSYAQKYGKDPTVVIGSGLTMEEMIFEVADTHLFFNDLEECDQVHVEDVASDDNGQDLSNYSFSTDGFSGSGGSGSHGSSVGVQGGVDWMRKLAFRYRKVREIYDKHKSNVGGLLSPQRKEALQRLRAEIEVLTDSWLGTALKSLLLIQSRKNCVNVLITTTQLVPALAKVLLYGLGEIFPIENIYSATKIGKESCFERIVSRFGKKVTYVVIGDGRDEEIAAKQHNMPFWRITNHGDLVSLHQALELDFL

[2] = target: T2, myc-EYA1 WT (human) (UniProt Q99502); assay: co-IP; 293T cells co-expressing both tagged proteins and Src kinase (SrcY527F); myc-tagged protein immunoprecipitated with anti-myc, trapped protein detected with anti-VSV-G; lysis in 50 mM Tris-HCl pH 7.4, 150 mM NaCl, 1% NP-40, 10 mM MgCl2, 1 mM orthovanadate, 5 mM iodoacetic acid, 10% glycerol, 4 °C
T2 sequence: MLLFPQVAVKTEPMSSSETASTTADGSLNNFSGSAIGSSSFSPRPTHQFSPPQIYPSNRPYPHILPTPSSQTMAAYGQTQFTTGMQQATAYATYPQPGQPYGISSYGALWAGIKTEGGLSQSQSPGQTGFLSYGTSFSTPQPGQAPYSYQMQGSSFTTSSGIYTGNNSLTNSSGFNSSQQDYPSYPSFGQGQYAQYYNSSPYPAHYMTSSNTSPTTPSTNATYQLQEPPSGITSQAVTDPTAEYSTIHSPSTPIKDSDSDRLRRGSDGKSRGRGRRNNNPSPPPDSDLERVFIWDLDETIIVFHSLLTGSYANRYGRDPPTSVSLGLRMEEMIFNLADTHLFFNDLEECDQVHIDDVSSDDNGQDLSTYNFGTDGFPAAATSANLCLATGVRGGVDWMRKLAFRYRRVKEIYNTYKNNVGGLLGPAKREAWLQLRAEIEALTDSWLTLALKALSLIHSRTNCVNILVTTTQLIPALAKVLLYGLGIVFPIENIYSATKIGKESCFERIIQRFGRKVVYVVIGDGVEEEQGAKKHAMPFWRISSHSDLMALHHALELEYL

[3] = target: T3, myc-EYA1 D297N (human) (UniProt Q99502); assay: as above
T3 sequence: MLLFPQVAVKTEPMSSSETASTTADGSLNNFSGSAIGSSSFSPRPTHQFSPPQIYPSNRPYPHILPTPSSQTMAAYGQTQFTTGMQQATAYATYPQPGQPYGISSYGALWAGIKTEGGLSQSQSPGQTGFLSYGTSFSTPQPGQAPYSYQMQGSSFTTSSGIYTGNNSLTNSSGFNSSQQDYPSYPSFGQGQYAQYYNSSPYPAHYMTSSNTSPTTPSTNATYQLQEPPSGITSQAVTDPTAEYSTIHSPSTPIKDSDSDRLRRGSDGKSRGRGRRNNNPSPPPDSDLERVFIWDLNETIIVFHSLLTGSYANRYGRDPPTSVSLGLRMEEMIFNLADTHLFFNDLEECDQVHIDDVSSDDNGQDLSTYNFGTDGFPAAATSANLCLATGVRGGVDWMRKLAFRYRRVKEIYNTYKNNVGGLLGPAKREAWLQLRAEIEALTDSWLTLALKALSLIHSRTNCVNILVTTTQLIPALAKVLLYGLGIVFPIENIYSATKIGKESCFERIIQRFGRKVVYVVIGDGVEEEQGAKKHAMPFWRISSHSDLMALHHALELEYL

Row | Binder | binding [1] | binding [2] | binding [3]
1 | VSV-G-WDR1 WT, phosphorylated by co-expressed Btk kinase (protein, UniProt O75083 1-606, phosphotyrosine (Btk kinase mediated phosphorylation; sites not mapped)) MPYEIKKVFASLPQVERGVSKIIGGDPKGNNFLYTNGKCVILRNIDNPALADIYTEHAHQVVVAKYAPSGFYIASGDVSGKLRIWDTTQKEHLLKYEYQPFAGKIKDIAWTEDSKRIAVVGEGREKFGAVFLWDSGSSVGEITGHNKVINSVDIKQSRPYRLATGSDDNCAAFFEGPPFKFKFTIGDHSRFVNCVRFSPDGNRFATASADGQIYIYDGKTGEKVCALGGSKAHDGGIYAISWSPDSTHLLSASGDKTSKIWDVSVNSVVSTFPMGSTVLDQQLGCLWQKDHLLSVSLSGYINYLDRNNPSKPLHVIKGHSKSIQCLTVHKNGGKSYIYSGSHDGHINYWDSETGENDSFAGKGHTNQVSRMTVDESGQLISCSMDDTVRYTSLMLRDYSGQGVVKLDVQPKCVAVGPGGYAVVVCIGQIVLLKDQRKCFSIDNPGYEPEVVAVHPGGDTVAIGGVDGNVRLYSILGTTLKDEGKLLEAKGPVTDVAYSHDGAFLAVCDASKVVTVFSVADGYSENNVFYGHHAKIVCLAWSPDNEHFASGGMDMMVYVWTLSDPETRVKIQDAHRLHHVSSLAWLDEHTLVTTSHDASVKEWTITY | binds weakly |  | 
2 | VSV-G-EYA3 Y508F (enzyme, UniProt Q99504 1-573) MEEEQDLPEQPVKKAKMQESGEQTISQVSNPDVSDQKPETSSLASNLPMSEEIMTCTDYIPRSSNDYTSQMYSAKPYAHILSVPVSETAYPGQTQYQTLQQTQPYAVYPQATQTYGLPPFGALWPGMKPESGLIQTPSPSQHSVLTCTTGLTTSQPSPAHYSYPIQASSTNASLISTSSTIANIPAAAVASISNQDYPTYTILGQNQYQACYPSSSFGVTGQTNSDAESTTLAATTYQSEKPSVMAPAPAAQRLSSGDPSTSPSLSQTTPSKDTDDQSRKNMTSKNRGKRKADATSSQDSELERVFLWDLDETIIIFHSLLTGSYAQKYGKDPTVVIGSGLTMEEMIFEVADTHLFFNDLEECDQVHVEDVASDDNGQDLSNYSFSTDGFSGSGGSGSHGSSVGVQGGVDWMRKLAFRYRKVREIYDKHKSNVGGLLSPQRKEALQRLRAEIEVLTDSWLGTALKSLLLIQSRKNCVNVLITTTQLVPALAKVLLYGLGEIFPIENIFSATKIGKESCFERIVSRFGKKVTYVVIGDGRDEEIAAKQHNMPFWRITNHGDLVSLHQALELDFL |  | no binding | no binding
